Measured values from article doi:10.1101/2023.02.19.529116.
No constants are given. Whether binding was seen depends on the method and setting. Some binding calls cover weakened binding; strength is not graded here. Where a sequence is shown, tags or fusion partners need not be part of it.

Chains of the proteins cited; added tags and fusions are not shown.
UniProt P92177: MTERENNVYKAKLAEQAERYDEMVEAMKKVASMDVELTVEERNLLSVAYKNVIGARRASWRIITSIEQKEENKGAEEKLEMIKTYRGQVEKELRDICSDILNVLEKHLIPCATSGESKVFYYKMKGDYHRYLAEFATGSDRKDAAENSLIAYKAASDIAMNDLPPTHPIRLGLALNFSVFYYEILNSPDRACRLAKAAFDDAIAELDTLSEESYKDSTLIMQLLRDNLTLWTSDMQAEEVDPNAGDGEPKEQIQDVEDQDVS
UniProt Q32KD4: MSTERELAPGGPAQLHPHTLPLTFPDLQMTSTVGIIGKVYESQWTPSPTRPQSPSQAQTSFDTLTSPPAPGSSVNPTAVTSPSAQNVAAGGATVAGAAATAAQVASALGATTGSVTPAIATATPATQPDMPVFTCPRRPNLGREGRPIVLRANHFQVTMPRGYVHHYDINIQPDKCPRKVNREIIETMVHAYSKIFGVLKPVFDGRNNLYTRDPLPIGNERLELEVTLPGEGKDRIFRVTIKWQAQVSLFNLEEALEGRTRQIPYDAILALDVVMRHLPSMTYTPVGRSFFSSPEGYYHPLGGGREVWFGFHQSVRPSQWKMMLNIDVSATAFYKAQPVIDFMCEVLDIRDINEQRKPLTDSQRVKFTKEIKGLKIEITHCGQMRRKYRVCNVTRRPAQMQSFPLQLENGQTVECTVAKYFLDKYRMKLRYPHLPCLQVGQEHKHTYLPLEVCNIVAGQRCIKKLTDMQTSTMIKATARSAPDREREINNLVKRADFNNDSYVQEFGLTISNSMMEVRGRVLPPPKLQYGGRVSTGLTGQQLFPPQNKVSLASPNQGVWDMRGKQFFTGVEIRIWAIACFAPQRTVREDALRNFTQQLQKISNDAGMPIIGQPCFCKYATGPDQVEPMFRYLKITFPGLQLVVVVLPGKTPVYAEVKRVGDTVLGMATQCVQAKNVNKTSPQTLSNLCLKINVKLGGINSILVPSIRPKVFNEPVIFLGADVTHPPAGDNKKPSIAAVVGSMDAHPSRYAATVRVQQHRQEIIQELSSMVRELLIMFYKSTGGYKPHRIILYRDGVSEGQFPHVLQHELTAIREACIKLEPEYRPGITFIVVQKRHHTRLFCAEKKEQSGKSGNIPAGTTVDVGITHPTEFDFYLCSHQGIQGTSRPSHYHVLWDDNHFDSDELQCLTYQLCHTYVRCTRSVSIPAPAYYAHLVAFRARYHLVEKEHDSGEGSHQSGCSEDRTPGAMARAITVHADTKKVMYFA

Target: T1, PH-EGFP-Smaug (Drosophila) (UniProt Q23972)
T1 sequence: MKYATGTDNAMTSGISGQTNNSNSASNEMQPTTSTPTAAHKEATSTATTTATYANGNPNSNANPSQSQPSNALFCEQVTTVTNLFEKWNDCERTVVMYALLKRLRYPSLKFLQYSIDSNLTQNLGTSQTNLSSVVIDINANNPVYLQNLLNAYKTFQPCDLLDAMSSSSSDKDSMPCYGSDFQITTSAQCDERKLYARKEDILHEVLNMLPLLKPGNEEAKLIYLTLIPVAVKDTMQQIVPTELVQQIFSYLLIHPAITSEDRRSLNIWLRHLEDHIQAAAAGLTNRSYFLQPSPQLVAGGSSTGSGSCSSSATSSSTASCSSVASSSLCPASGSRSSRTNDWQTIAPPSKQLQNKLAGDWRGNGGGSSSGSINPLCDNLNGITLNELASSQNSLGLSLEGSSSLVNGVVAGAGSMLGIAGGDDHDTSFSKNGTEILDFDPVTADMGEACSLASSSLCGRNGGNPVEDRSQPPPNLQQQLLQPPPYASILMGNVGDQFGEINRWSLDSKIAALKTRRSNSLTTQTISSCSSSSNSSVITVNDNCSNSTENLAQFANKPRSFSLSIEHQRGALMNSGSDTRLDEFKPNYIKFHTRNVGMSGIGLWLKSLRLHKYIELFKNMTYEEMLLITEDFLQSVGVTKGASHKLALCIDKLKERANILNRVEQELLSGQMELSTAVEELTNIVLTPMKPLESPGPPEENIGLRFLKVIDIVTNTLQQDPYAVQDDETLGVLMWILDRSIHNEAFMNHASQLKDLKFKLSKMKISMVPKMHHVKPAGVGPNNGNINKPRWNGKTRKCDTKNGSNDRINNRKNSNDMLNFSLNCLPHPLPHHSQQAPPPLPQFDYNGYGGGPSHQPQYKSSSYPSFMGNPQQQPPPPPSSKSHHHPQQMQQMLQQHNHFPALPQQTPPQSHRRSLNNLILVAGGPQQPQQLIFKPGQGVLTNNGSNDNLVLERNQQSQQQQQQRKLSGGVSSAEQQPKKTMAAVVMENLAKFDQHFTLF
Test: ReLo

| binding | Substance |
| --- | --- |
| binds | 14-3-3ε (from UniProt P92177 1-262) |
| no binding | Ago1 (from UniProt Q32KD4 1-984) |
